Binding data for one substance are collected here from paper PMC9467883.

No constants are given. Whether binding was seen depends on the method and setting.

In the experiment the target is Human Trio SR6-GEF1 (human) (UniProt O75962). Put plainly: SEC; S200 Increase 10/300 GL column in assay buffer; Stokes radii estimated from elution volume against protein standards; both purified.

Consider “Human Trio SR6-GEF1 (from UniProt O75962 788-1599) (domain or fragment)”, for which the binding entry is reported as “no binding”.
